To fix the notation:
B1: tRNA (parent)
chain: GUUCCGUUGGCGUAAUGGUAACGCGUCUCCCUCCUAAGGAGAAGACUGCGGGUUCGAGUCCCGUACGGAACG

Variants at the background level are over-represented here. Where only a bound is given, the exact number is not on record here.

In the data set the parent is B1. The data set is described as follows: yeast fitness relative to wild type (ratio to wild type); higher = fitter; tRNA-Arg(CCU), competitive growth, 37 C, YPD. An outline of the steps: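 Amplicons of the tRNA-Arg(CCU) gene were sequenced, 100-nucleotide paired-end, from the start population and from each end population of a pooled yeast competition. The competition, in six parallel replicates, lasted 24 hours in YPD at 37°C. Fitness relative to wild type was calculated from changes in genotype frequencies. Genotypes had to have ≥ 100 starting reads, and estimates < 0.5 were set to 0.5.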
For the variant U8C C22A U53A C62U, the yeast fitness was at most 0.5. To G25A C31G A45U C61U C62U belongs at most 0.5; to G18C C33G A36C C46A, at most 0.5; to C11U G38C C62G A69C, at most 0.5.

In the case of C4A U26G U32A G44C G58A G68C, the yeast fitness was at most 0.5.

With C5G C11A A15G G18A C30G C62G A69C, the yeast fitness was at most 0.5. To U2C C4U C11U A45U A57U belongs at most 0.5; to U59A G68U A69U, at most 0.5.

As to U2G G9A A36G A57G C60U, the yeast fitness was found to be 0.672.

For the variant A42G U59C C66G G68A, the yeast fitness is at most 0.5.

As for G17C U53A, the yeast fitness is 0.583.

As for C5U A15G C30U A40U A70C, the yeast fitness is at most 0.5. To U3G A37U G63A belongs at most 0.5; to A15U A37G G51C C62G, at most 0.5; to U32C A40G C62G G68A A69C, at most 0.5. To C30U A57G C66U belongs 0.53; to C11U A21U G41C, 0.603. As to C29G C55G A57G A65C, the yeast fitness is at most 0.5.

On to C29A G67U G68C A69U, for which the yeast fitness was at most 0.5. In the case of C5U U8C A21G G23A, the yeast fitness was at most 0.5. To C22G C27G C29G C49U belongs at most 0.5; to G12A G39U G48C, at most 0.5. The value for G18A C24A G58A was at most 0.5. The value for G41C G56A was 0.825; that for C5G C34A G39C G52A G58A G63A was at most 0.5; that for C4U C11U C22G G39C G44C G52C was at most 0.5. On to G6C U8C A21C, for which the yeast fitness was at most 0.5.

U2A U13G U28A A36U A45U A57G: the yeast fitness is 0.59. The value for A20U C24U A42C C62G was 0.735; that for C5A A21G G23A G67C was 0.591. G17C C46G G68A: the yeast fitness is at most 0.5. Consider C29U C31U G41C, for which the yeast fitness was at most 0.5.

U19C C29A A43C G58C: the yeast fitness is at most 0.5. For U32G C46U G51A, the yeast fitness is at most 0.5. To U3C U8G U32A C33G C62U A65G belongs at most 0.5; to G12C C33G U54A U59A G67A, at most 0.5; to G18A C46U G56A A70G, at most 0.5.

For the variant G10C C34G G67A, the yeast fitness was at most 0.5. As for U7C C34U G52C, the yeast fitness is 0.579. U3C G12A G44C: the yeast fitness was determined as 0.546. The value for C5G A36C A42G C61G A70U was at most 0.5. The value for U7G A15G C55G was at most 0.5; that for G38A A42C U54C was at most 0.5.

As for C5U G23C U32C U54A, the yeast fitness is at most 0.5.

Take C31G C55G: the yeast fitness turned out to be 0.592.

Regarding A14C A40C U64C, the yeast fitness stood at 0.622. The value for A40C G67A was 0.846; that for G6C U8C G68C was at most 0.5; that for U13A C29U A43G U54A U59C C61A was at most 0.5. The value for U32G U35A G38C G51C C66U was 0.579.

In the case of C4G C30A C62G, the yeast fitness was at most 0.5. Regarding C24A A36G C55G, the yeast fitness is at most 0.5.

For A15C C33G A70G, the yeast fitness was at most 0.5. To C11U G23A C27U A40C C66U belongs at most 0.5; to A14U U54C, at most 0.5; to G17A A20G C22U A45G C46U A69U, at most 0.5. Turning to C24G A42C C66A, the yeast fitness was at most 0.5.

For U28C C61G A69U, the yeast fitness is at most 0.5. To C5G A21G A65C C66U belongs at most 0.5; to G41C G52C A69C, at most 0.5. Regarding U2G C29G C33G, the yeast fitness was at most 0.5. The value for G9C U26C was 0.612. To G10C C22A C60G C61U G63A belongs at most 0.5; to C4U A14C G44A U54A A70U, at most 0.5; to U19G C55G C66U, 0.536. To G18C U32A C46U belongs at most 0.5; to G6A G38A A43G, at most 0.5. With C27G A45U G56C A57G, the yeast fitness is at most 0.5. Consider C4G A14G C31A C66U, for which the yeast fitness was at most 0.5. To U13C C49G C61G A70U belongs at most 0.5. To C5U G6C C11A C31G A36C C49U U59A belongs at most 0.5; to U3G C11U U64C, at most 0.5; to C27U C29U C49G U54C, at most 0.5. To C5U C34A U53A U64G C66U belongs at most 0.5; to C24A A37U A40U U54A, at most 0.5; to A14U U26A C30U, at most 0.5. Turning to C29U A37U G39C, the yeast fitness was at most 0.5. The value for C4U G52A G58A was at most 0.5.

For C11G G12C A20C C24G C55G, the yeast fitness is at most 0.5. The value for U32A G39A G63A was at most 0.5. The value for U8A C22U A43G C66A was at most 0.5; that for G6A C31A C33U G41A C55A was at most 0.5; that for U13A C29U C60G C62G A70C was at most 0.5. To C30A G39A A42G G51A belongs at most 0.5. In the case of A21G G25C C27G A42C G68C, the yeast fitness was at most 0.5. With C4U G17C U26A A45G, the yeast fitness was at most 0.5. The value for U7A C34G G38C was at most 0.5. The value for C4A C5U C22U C34A A57G was at most 0.5; that for C5G G25A G48A was 0.724. The value for A14U U28A G41C A42U G52A was at most 0.5; that for U28G U54G A65C G67A was at most 0.5; that for G6C C29G C61U was at most 0.5.

In the case of C4U G6C G10A A21U A45U G68C, the yeast fitness is at most 0.5.

For C29A C66G A70U, the yeast fitness was at most 0.5. The value for G9C C31A C62G was at most 0.5; that for C29U G44C U47C G52A was at most 0.5; that for U26A G48C A65U A70U was at most 0.5. To G9A A21U A36G A40C G56C belongs at most 0.5; to G10C U13A A40C C60G, at most 0.5; to A21C U35C G63A A65G, at most 0.5. The value for C24G C30U A43C C60G A65C was at most 0.5; that for C29A C34G C55G was at most 0.5; that for C5A A15U C31G G39A C61G was at most 0.5. With G6A C22U A40G A43U C46G C49G C62U, the yeast fitness is at most 0.5. The value for G23C C55G G58C was at most 0.5.

Take C5G G9C A21G C30G A36G C46G A57U: the yeast fitness is at most 0.5. To U19C C34U G38C U47C belongs at most 0.5. The value for C11G G25A C31G was at most 0.5; that for C4G A21G C24A C29U G44C G58C was at most 0.5.

On to U28G C33G A70C, for which the yeast fitness was at most 0.5.

As to G25A U53C, the yeast fitness is 0.819. The value for U7A U16C A21U U26A C46U C60U was 0.55; that for G38U G48A A70U was 0.652; that for U26C U35C U64G C66G was at most 0.5. To A15G C24U G56C belongs at most 0.5; to A36G C61U A69C, 0.693; to U26A C33G C34G U35A G48C U54A, at most 0.5.

For the variant A15G G51A U54C C55G, the yeast fitness is at most 0.5. To G6A C22G G25A U47A A70C belongs at most 0.5; to A20C C30A C33U C34U C49A C62G, at most 0.5. Turning to G12A A21U C22U, the yeast fitness is at most 0.5. The value for U7A C11A C30U U32A was at most 0.5. The value for A43U G51C C61G was 0.593. The value for G23A A36C was 0.586; that for G17C C27U A43G was at most 0.5.

As for A20U C31A U64G C66A, the yeast fitness was at most 0.5.

U26C C27A C55U: the yeast fitness was at most 0.5. The value for C5U G44A was 1.08; that for G9A C31A U47A was at most 0.5; that for C29U A43G G44A C46A was 0.609. U32G U35G A36C C61G: the yeast fitness was at most 0.5. For U32C C46G G58C G68U, the yeast fitness was at most 0.5. The value for U7A C46G C62G A70C was at most 0.5; that for G6C U53C A65G was at most 0.5; that for C34U G56A C60G C66G was at most 0.5. Turning to C22A G23A C33U C34G, the yeast fitness is at most 0.5. The value for C4G U32C A45U was 0.537; that for A15G A21C C24U A36U A43U G58C C66A was at most 0.5.

Turning to U8C A20G A21U, the yeast fitness was at most 0.5. The value for C31U C61A U64A A69U was at most 0.5. As to C31U G41C A43C C60G G68C, the yeast fitness was at most 0.5. The value for C33G G58C G68C was at most 0.5; that for A15C A36U C66A was at most 0.5.

For the variant A20G C24U G52A, the yeast fitness is at most 0.5. The value for C4G U13A A21C U35A was at most 0.5; that for U2A C5G G10A C11G A20G was at most 0.5. The value for U8A U26C U54C C55G C61A was at most 0.5; that for A15C G52C was 0.575. Consider C34G A40U A42U G67C, for which the yeast fitness is at most 0.5. The value for C5U U8C A14U C30U G39C C60A A70C was at most 0.5; that for A36C C60G G67A was at most 0.5. To C5G A36G A43U belongs 0.549.

For the variant U16A C34A G39A, the yeast fitness was at most 0.5. To C27U A45G U53C belongs 0.544; to G12A C31U C61G, 0.543; to A21C C22G G67U, at most 0.5. The value for U3G C5U U26A G38A C62U A70U was at most 0.5.

Regarding G10C C22U U59A, the yeast fitness was at most 0.5.

For C4U G9A C22G A42U, the yeast fitness amounted to 0.546. The value for C29A C30U C34U C61U C66A was at most 0.5. The value for G10A C29A C34G A43C U59C C60G was at most 0.5.

On to G10C C11U C34A G44C U64A, for which the yeast fitness was at most 0.5.

Consider U8C C11A C30A, for which the yeast fitness is at most 0.5. The value for C4A G12C A42U was at most 0.5; that for C5G G10A C11G U16G C33G C66U was at most 0.5; that for U3A A57U A65C A69C was 0.593. The value for U8A C24U A40U A42C A45U U64A was at most 0.5.

Values taken from the RNAGym collection of RNA variant scans (doi:10.1126/science.aae0568).
